{
  "sequences": {"note": "Protein sequences, listed by entry. Tags and fused reporters are not part of them. Lines headed by an entry give the natural chain unless they say otherwise; changes in a name come on top.", "UniProt C7C422": "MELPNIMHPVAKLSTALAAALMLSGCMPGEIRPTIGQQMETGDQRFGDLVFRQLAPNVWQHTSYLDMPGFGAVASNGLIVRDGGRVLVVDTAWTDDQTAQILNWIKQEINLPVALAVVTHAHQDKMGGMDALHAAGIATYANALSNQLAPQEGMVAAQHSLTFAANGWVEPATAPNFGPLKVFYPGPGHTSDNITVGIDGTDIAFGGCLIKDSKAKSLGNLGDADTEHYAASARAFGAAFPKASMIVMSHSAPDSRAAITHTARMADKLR"},
  "source": "PubChem BioAssay AID1794845",
  "about": "(National Center for Advancing Translational Sciences (NCATS), 2023)",
  "note": "Out of some 6,900 compounds screened, fewer than 10 were called active. The call rests on the fitted dose curve; in most records, active means well fitted curve in the direction sought with a large enough effect; inconclusive means small, poorly fitted or top-dose-only effect, or another doubt; inactive means no such curve, though single readings can be large or run the other way. This is one part of the list.",
  "data": [
    {"target": "Metallo-beta-lactamase type 2 (Klebsiella pneumoniae) (UniProt C7C422)", "assay": "qHTS to identify inhibitors of the New Delhi Metallo-beta-lactamase (NDM): primary screen against the NCATS Gemini Collection; further: % of control where 0% means no effect", "conditions": "NDM-1 enzyme, meropenem hydrolysis, absorbance 300 nm; at 38.4 µM (top of the series) unless noted", "summary_of_the_method": "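Meropenem hydrolysis (50 uM final) by 2 nM NDM-1 read as 300 nm absorbance after 30 min, following >30 min compound–enzyme preincubation in HEPES pH 7.0 with 1 uM ZnSO4 and 0.01% Tween20.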", "values": [
      {"smiles": "O=S(=O)(c1ccccc1)N1CCCC(Cc2noc(-c3ccncc3)n2)C1", "note": "(centres undefined)", "activity % (negative = inhibition)": "inactive: 10.9%"},
      {"smiles": "CC1=NOC2(CCN(C(=O)c3ccccc3)C2)C1", "note": "(centres undefined)", "activity % (negative = inhibition)": "inactive: 2.48% [at 57.5 µM]"},
      {"smiles": "Cc1nc(N2CCCCC2)n(CC(=O)Nc2ccc(Br)cc2)c(=O)c1C", "activity % (negative = inhibition)": "inactive: 13.5%"},
      {"smiles": "CCc1ccc(NC(=O)N2CCN(C)C3(CCC(=O)N(C)CC3)C2)cc1", "note": "(centres undefined)", "activity % (negative = inhibition)": "inactive: -0.186%"},
      {"smiles": "Cc1occc1C(=O)N1CCC2(CC1)N=C(CC(C)C)NC2=O", "activity % (negative = inhibition)": "inactive: -2.45%"},
      {"smiles": "Cc1ccccc1OCC(=O)Nc1cccn2nc(-c3cccnc3)nc12", "activity % (negative = inhibition)": "inactive: -4.3%"},
      {"smiles": "CC(C)Cc1cnc(C2CCCN(C(=O)OC(C)(C)C)C2)[nH]1", "note": "(centres undefined)", "activity % (negative = inhibition)": "inactive: -4.47% [at 57.5 µM]"},
      {"smiles": "Cc1cccc(C(=O)N2CCCC(c3noc(-c4cc5c(=O)[nH]c(C)cn5n4)n3)C2)c1", "note": "(centres undefined)", "activity % (negative = inhibition)": "inactive: 14.5%"},
      {"smiles": "Cc1nc(N2CCC(NC(=O)C3CCCCC3)CC2)cc(C(F)(F)F)n1", "activity % (negative = inhibition)": "inactive: 9.98%"},
      {"smiles": "C[S+](=O)([O-])CCn1ncc2cc(OCc3cccc(-c4cccc(F)c4)c3)ccc21", "activity % (negative = inhibition)": "inactive: 0.0334% [at 57.5 µM]"},
      {"smiles": "CCC(C)(C)C(=O)N1CCC2(CC1)N(C)C(=O)CS2(=O)=O", "activity % (negative = inhibition)": "inactive: 1.27%"},
      {"smiles": "O=C1NC(=NC2CCCC2)C2(CCN(Cc3cccnc3)C2)N1c1cc(F)cc(F)c1", "note": "(centres undefined)", "activity % (negative = inhibition)": "inactive: -6.75%"},
      {"smiles": "O=C(Nc1ccccc1)N1CCCC(C(=O)N2CCC(N3CCCC3=O)CC2)C1", "note": "(centres undefined)", "activity % (negative = inhibition)": "inactive: -7.1%"},
      {"smiles": "O=C(C[C@H]1NC(=O)c2ccccc2NC1=O)Nc1nc(-c2ccncc2)cs1", "activity % (negative = inhibition)": "inactive: 33.3%"},
      {"smiles": "O=C1NC2(CCN(Cc3cccc4ccccc34)C2)OCc2ccccc21", "note": "(centres undefined)", "activity % (negative = inhibition)": "inactive: 0.632%"},
      {"smiles": "O=C(NCc1ccc(Cl)cc1)[C@@H]1Cc2nc[nH]c2CN1Cc1cc2ccccc2o1", "activity % (negative = inhibition)": "inactive: 5.28% [at 57.5 µM]"},
      {"smiles": "CC[C@H]1CN(C(=O)NC2CCCCC2)CC[C@H]1CC(=O)NCc1ccco1", "activity % (negative = inhibition)": "inactive: -0.7% [at 57.5 µM]"},
      {"smiles": "CC1CCCN1c1ncnc2c1CN(c1ccccc1F)C(=O)CN2C", "note": "(centres undefined)", "activity % (negative = inhibition)": "inactive: 0.372%"},
      {"smiles": "COCC(=O)N1CCC(Oc2ccccc2C(=O)N(C)Cc2ncccc2C)CC1", "activity % (negative = inhibition)": "inactive: -1.43%"},
      {"smiles": "CC(=O)N1CCC(Cc2ccc(C(=O)N(C)Cc3cccnc3)cc2)CC1", "activity % (negative = inhibition)": "inactive: -8.15%"},
      {"smiles": "O=C1CC2CCCC(C1)N2C(=O)c1ccncc1", "activity % (negative = inhibition)": "inactive: 5.12% [at 57.5 µM]"},
      {"smiles": "O=C(c1nc2ccccc2[nH]1)N1CCNc2cnc(Nc3ccc(-n4ccnc4)cc3)nc2C1", "activity % (negative = inhibition)": "inactive: 44.3%"},
      {"smiles": "CO[C@H]1C(=O)N(C(C)C)[C@H]1C1CCN(C(=O)C(C)C)CC1", "activity % (negative = inhibition)": "inactive: 7.65%"},
      {"smiles": "CNC(=O)[C@@H]1C[C@@H](O)CN1C1CCN(C(=O)C2(c3ccccc3)CC2)CC1", "activity % (negative = inhibition)": "inactive: 52%"},
      {"smiles": "N#Cc1ccc(S(=O)(=O)N2CCC(C3CCNC3)CC2)cc1", "note": "(centres undefined)", "activity % (negative = inhibition)": "inactive: -1.98%"},
      {"smiles": "Cc1ccc2[nH]c(CN3CCC(c4cccc(C#N)c4)CC3)cc(=O)c2c1", "activity % (negative = inhibition)": "inactive: 12.4%"},
      {"smiles": "COCCOC1CCN(C(=O)Nc2cccc(C)c2)CC1", "activity % (negative = inhibition)": "inactive: 0.132%"},
      {"smiles": "COCCn1nc2n(c1=O)CCC1(CC2)CCN(C(=O)CC(C)(C)C)CC1", "activity % (negative = inhibition)": "inactive: 8.77%"},
      {"smiles": "COc1ccc(CNC(=O)N2CCCCC2c2nc(-c3cnccn3)n[nH]2)cc1", "note": "(centres undefined)", "activity % (negative = inhibition)": "inactive: -5.76%"},
      {"smiles": "COc1ccc(C(C)NC(=O)c2c(C)sc3ccn(C)c(=O)c23)cc1", "note": "(centres undefined)", "activity % (negative = inhibition)": "inactive: 2.92%"},
      {"smiles": "O[C@@H]1C[C@@H](c2nnc3n2CCN(C2CCCCC2)C3)N(Cc2cccnc2)C1", "activity % (negative = inhibition)": "inactive: -11%"},
      {"smiles": "COc1cccc(CCC(=O)N[C@@H]2CN(c3ncccn3)C[C@H]2CO)c1", "activity % (negative = inhibition)": "inactive: -0.556%"},
      {"smiles": "COc1ccc(C(=O)N2CCCC(c3nc(-c4ccccc4)no3)CCNC(=O)CC2)cn1", "note": "(centres undefined)", "activity % (negative = inhibition)": "inactive: -20.6%"},
      {"smiles": "CN(C)c1ccc(C(=O)NC[C@H]2O[C@@H](CO)[C@@H](O)[C@H]2N(C)Cc2ccccc2)cc1", "activity % (negative = inhibition)": "inactive: 8.68%"},
      {"smiles": "COc1cccc(CNC(=O)c2c(C)noc2-c2ccccc2OC)c1", "activity % (negative = inhibition)": "inactive: 11.5%"},
      {"smiles": "CCOc1ccc(C2Cn3nnc(-c4nc(-c5ccccc5OC)no4)c3CO2)cc1", "note": "(centres undefined)", "activity % (negative = inhibition)": "inactive: 1.39%"},
      {"smiles": "CC(O)CN1CC2(CCC1=O)CCN(C(=O)c1ccnn1C)CC2", "note": "(centres undefined)", "activity % (negative = inhibition)": "inactive: 26.6%"},
      {"smiles": "Cc1ncsc1C(=O)N1CCCC(C)(Cc2ccc3c(c2)OCO3)C1", "note": "(centres undefined)", "activity % (negative = inhibition)": "inactive: 1.09%"},
      {"smiles": "CCc1c(C(=O)N2CCc3c(c(C(=O)O)nn3CC3CC3)C2)csc1C", "activity % (negative = inhibition)": "inactive: 29.2%"},
      {"smiles": "COc1ccc(CN2CCOc3nc(-c4cccc(C(F)(F)F)c4)ncc3C2=O)cc1", "activity % (negative = inhibition)": "inactive: 24.9% [at 57.5 µM]"},
      {"smiles": "CC1CCN(Cc2nnnn2CC(=O)N(C)Cc2ccccn2)CC1", "activity % (negative = inhibition)": "inactive: -0.642%"},
      {"smiles": "COc1cccc(N2C(=O)NC(=NC3CCCCC3)C23CCCN(CC2CCCCC2)C3)c1", "note": "(centres undefined)", "activity % (negative = inhibition)": "inactive: -1.1%"},
      {"smiles": "COCC(=O)N1CCN(c2nc3ncccc3o2)CC1", "activity % (negative = inhibition)": "inactive: 44% [at 57.5 µM]"},
      {"smiles": "FC(F)(F)c1ccnc(N2CC[C@H](c3nnc(-c4ccncc4)o3)C2)n1", "activity % (negative = inhibition)": "inactive: -0.667% [at 57.5 µM]"},
      {"smiles": "CSc1ccccc1C(=O)N1CCN(C(C)=O)CC(O)C1", "note": "(centres undefined)", "activity % (negative = inhibition)": "inactive: 6.41%"},
      {"smiles": "Cn1c(CN2CCN3C(=O)NC[C@H]3C2)nc2ccccc21", "activity % (negative = inhibition)": "inactive: 0.7% [at 77.1 µM]"},
      {"smiles": "CCC1Oc2ccc(NC(=O)c3ccccc3OC(C)=O)cc2CN(Cc2ccccc2F)C1=O", "note": "(centres undefined)", "activity % (negative = inhibition)": "inactive: 14.7%"},
      {"smiles": "COc1ccnc(-c2nnc3ccc(Nc4cc(OC)c(OC)c(OC)c4)nn23)c1", "activity % (negative = inhibition)": "inactive: 12.4% [at 57.5 µM]"},
      {"smiles": "CNCCN1C(=O)CC[C@H]2CN(Cc3cc(C4CCCCC4)no3)CC[C@H]21", "activity % (negative = inhibition)": "inactive: 17.6%"},
      {"smiles": "Cc1[nH]nc2c1C(c1c(F)cccc1F)C(C#N)=C(N)O2", "note": "(centres undefined)", "activity % (negative = inhibition)": "inactive: -1.26%"},
      {"smiles": "O=C1CCN(C(=O)c2ccco2)CCCC(C(=O)NCc2ccccc2)CCN1", "note": "(centres undefined)", "activity % (negative = inhibition)": "inactive: -0.292%"},
      {"smiles": "CC(C)CNC(=O)C1CCCN(c2ccnc3ccnn23)C1", "note": "(centres undefined)", "activity % (negative = inhibition)": "inactive: 47.7% [at 57.5 µM]"},
      {"smiles": "O=C(c1ccccc1)N1CCC2(CC1)C(=O)NN=C2C1CC1", "activity % (negative = inhibition)": "inactive: 1.76% [at 57.5 µM]"},
      {"smiles": "CC(=O)N1CCCN(Cc2nnc(C(=O)N3CCC[C@@H]3C(c3ccccc3)c3ccccc3)n2-c2ccccc2)CC1", "activity % (negative = inhibition)": "inactive: -0.156%"}
    ]}
  ]
}
